Measured values as given in patent publication US20090181975A1, “NEBIVOLOL IN THE TREATMENT OF SEXUAL DYSFUNCTION” (FOREST LABORATORIES HOLDINGS LIMITED, priority 2008, published 2009).

Test system: diabetic rats
Assay: Glycemia, arterial pressure and heart rate in STZ-diabetic rats after 10 days s.c. treatment
Type: in vivo, rat (Sprague-Dawley)
Details: 3 or 10 mg/kg/day s.c. for 10 days
Description: Male Sprague-Dawley rats were used as a model for this study. Diabetes was induced by a single injection of streptozotocin (STZ, 60 mg/kg; i.p.) dissolved in 0.1 M citric acid/trisodic citrate buffer (pH 4-4.5) and was assessed by glycemia determination 72 h after induction. Animals were kept, with free access to food and water, for 8 weeks before experimental assays. Eight weeks after induction of diabetes, rats show reduced erectile responses (Angulo et al., Naunyn-Schmiedeberg's Arch Pharmacol, 358(5), 529-37, 1998; Angulo et al., J. Sex Med., 2, 341-346, 2005). Blood glucose concentration was determined each week and just before the experiment. Insulin levels were not determined. […] After this period of treatment, the diabetic rats were anesthetized and ICP responses to electrical stimulation were evaluated. After an equilibration period, the PDE5 inhibitor sildenafil (0.3 mg/kg) or the vehicle (25% glycofurol) was intravenously administered. Forty five minutes later, ICP responses were again determined

| SMILES | effect on blood glucose concentrations in diabetic rats |
| --- | --- |
| OC(CNCC(O)C1CCc2cc(F)ccc2O1)C1CCc2cc(F)ccc2O1 (racemic) [nebivolol, α,α′-iminobis(methylene)bis[6-fluoro-2-chromanmethanol]] | did not significantly alter |
| CC(C)NCC(O)COc1ccc(CC(N)=O)cc1 (centres unmarked) [atenolol] | did not significantly alter |
